Consider 41 targets from the supplement of paper PMC12067093, “Discovery and optimisation of a covalent ligand for TRIM25 and its application to targeted protein ubiquitination” (Chemical Science, 2025).

Amino acid sequences for entries named in this document (tags omitted). A change or cut given only in a name is not applied to a line headed by its entry.
UniProt Q15020: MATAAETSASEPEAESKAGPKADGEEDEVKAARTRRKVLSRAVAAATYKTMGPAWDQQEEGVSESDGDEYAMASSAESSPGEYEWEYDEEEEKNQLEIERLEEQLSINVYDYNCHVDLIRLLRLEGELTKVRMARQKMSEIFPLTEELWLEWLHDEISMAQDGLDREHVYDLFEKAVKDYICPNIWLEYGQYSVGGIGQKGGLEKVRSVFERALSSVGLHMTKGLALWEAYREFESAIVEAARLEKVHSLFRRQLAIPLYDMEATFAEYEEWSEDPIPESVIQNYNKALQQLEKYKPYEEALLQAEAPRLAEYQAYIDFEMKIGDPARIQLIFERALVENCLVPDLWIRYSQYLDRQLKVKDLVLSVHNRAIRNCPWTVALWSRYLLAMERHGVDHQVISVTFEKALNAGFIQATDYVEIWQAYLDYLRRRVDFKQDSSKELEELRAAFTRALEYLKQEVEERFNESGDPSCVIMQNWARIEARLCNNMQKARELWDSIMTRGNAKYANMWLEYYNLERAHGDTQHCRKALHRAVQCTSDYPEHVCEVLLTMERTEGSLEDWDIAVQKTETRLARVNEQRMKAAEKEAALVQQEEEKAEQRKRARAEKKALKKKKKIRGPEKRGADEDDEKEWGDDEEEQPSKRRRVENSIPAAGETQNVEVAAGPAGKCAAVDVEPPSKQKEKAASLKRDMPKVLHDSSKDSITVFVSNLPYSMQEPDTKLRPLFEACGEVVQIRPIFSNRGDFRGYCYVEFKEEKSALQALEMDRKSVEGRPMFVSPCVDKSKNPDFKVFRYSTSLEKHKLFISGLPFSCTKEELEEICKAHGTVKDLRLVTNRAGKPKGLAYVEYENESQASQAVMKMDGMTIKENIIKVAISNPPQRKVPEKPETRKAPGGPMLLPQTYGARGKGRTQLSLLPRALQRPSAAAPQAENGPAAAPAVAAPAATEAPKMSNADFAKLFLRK
UniProt Q9Y6Y8: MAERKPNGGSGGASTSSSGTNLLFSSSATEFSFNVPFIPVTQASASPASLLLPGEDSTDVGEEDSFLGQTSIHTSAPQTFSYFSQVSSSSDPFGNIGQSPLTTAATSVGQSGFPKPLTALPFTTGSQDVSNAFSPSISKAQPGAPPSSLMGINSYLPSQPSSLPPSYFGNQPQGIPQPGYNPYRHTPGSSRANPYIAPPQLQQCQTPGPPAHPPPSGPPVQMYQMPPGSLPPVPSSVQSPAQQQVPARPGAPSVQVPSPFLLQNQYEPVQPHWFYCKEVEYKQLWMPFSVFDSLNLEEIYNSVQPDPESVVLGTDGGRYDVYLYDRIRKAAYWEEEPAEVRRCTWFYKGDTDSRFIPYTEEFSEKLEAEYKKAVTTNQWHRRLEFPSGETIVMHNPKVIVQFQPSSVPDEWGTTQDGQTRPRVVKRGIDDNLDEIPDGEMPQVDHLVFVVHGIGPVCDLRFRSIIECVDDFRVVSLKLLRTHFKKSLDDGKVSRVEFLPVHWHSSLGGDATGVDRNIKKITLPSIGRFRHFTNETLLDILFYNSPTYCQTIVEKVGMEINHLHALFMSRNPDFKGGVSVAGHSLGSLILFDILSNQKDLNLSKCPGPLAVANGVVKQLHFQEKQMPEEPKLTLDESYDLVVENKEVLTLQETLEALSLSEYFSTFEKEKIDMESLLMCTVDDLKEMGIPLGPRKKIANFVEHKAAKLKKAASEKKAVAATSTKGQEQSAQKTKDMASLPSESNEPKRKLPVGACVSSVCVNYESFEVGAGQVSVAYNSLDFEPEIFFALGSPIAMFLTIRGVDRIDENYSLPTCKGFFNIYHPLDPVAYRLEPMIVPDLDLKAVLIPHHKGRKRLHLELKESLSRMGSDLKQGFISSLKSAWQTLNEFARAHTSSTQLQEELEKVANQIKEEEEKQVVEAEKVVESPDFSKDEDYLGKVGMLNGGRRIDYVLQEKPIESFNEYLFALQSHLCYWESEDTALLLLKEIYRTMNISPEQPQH
UniProt Q15437: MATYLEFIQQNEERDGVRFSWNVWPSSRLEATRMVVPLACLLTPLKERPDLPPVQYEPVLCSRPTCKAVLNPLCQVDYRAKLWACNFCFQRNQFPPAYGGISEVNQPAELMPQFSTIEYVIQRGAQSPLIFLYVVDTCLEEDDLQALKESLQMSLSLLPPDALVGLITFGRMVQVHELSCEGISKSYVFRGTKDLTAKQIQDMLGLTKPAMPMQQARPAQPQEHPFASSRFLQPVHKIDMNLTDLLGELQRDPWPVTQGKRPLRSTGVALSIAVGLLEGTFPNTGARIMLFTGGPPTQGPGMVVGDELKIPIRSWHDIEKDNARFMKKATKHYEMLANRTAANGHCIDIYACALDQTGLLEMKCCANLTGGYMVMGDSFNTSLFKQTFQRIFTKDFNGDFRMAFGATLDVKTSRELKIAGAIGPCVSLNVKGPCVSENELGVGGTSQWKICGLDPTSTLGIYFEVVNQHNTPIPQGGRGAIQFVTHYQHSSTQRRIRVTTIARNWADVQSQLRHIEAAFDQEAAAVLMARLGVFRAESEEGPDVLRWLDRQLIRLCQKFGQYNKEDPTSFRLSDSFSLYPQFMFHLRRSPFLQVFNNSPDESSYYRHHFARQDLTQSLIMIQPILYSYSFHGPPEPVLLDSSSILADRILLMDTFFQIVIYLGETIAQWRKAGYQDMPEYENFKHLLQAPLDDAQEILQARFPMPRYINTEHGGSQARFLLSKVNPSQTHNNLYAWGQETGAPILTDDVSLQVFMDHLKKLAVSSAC
UniProt Q96GA7: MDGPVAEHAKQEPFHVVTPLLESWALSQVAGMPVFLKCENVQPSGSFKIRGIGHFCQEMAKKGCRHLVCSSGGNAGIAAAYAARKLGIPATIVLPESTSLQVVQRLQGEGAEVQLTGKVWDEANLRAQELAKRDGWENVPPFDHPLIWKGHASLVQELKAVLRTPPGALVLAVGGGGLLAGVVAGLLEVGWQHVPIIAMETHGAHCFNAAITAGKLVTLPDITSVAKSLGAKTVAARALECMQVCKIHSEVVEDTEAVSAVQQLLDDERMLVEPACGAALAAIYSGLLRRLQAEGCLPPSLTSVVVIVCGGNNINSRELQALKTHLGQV
UniProt P53992: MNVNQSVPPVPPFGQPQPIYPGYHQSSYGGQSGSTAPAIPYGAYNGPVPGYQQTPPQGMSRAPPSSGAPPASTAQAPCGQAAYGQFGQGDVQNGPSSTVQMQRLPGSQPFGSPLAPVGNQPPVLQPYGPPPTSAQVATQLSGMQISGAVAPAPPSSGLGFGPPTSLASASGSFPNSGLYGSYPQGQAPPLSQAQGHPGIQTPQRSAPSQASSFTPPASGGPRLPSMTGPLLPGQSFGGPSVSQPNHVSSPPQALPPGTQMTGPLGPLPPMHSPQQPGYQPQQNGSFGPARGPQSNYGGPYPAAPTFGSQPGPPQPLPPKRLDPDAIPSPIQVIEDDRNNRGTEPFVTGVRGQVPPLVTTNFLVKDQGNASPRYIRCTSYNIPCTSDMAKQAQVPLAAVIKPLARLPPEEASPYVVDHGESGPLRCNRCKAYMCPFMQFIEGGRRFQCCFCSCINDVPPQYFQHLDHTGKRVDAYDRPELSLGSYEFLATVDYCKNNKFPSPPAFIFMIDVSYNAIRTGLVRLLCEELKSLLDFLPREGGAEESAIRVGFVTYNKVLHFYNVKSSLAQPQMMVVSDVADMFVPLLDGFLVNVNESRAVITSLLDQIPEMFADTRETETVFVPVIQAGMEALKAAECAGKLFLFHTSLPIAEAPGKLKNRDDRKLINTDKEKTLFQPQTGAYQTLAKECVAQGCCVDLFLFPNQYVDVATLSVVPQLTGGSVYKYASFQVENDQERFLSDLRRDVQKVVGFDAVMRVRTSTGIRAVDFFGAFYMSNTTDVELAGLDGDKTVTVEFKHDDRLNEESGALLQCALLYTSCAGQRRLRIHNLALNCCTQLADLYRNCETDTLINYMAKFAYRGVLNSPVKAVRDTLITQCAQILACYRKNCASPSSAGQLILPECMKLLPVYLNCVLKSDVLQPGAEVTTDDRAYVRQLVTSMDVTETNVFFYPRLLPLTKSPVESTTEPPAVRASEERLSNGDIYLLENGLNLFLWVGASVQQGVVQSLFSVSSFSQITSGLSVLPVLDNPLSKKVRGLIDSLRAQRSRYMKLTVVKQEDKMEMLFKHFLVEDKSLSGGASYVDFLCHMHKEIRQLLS
UniProt Q9Y3A5: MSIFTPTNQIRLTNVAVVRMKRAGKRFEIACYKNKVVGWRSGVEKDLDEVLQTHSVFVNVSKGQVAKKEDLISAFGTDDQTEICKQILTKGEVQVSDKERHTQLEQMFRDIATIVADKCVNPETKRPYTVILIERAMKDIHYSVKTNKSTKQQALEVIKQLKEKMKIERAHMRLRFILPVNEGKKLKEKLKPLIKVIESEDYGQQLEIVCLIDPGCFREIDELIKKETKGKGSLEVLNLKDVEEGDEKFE
UniProt Q9Y2G9: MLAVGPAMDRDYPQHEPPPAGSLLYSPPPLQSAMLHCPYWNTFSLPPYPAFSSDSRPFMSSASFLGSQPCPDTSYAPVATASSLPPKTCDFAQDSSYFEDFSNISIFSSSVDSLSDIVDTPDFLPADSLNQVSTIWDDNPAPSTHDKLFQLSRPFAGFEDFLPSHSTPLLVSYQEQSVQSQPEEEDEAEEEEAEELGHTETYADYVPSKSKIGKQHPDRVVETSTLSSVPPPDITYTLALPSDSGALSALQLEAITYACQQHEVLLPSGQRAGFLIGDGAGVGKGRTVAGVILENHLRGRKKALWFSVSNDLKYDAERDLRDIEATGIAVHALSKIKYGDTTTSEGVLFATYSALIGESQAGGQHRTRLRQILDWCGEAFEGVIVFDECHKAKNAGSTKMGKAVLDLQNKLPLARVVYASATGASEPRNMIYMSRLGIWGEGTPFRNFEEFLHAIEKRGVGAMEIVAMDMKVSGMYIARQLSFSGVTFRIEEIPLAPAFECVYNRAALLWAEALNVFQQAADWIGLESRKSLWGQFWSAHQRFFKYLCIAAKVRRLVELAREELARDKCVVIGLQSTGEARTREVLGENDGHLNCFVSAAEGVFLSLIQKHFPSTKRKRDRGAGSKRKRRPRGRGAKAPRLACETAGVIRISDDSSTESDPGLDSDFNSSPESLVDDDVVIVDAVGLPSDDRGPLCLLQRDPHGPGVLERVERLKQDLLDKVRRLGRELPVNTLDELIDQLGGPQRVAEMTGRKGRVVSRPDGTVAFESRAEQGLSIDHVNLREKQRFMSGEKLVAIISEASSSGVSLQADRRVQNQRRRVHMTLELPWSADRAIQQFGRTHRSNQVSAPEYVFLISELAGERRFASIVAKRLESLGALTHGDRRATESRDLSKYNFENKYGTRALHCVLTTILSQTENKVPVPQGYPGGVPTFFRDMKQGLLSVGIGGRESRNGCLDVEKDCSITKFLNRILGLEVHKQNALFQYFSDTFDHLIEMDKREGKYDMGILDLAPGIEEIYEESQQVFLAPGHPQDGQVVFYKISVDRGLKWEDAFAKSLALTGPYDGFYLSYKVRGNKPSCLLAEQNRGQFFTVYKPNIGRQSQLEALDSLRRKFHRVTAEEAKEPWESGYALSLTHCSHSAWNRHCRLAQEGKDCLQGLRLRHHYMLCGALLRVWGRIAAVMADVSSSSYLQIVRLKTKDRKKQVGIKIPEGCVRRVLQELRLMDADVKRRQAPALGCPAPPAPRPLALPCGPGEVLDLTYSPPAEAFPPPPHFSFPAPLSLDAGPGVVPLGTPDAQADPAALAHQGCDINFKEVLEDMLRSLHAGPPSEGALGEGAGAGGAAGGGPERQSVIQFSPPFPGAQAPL
UniProt Q96LD8: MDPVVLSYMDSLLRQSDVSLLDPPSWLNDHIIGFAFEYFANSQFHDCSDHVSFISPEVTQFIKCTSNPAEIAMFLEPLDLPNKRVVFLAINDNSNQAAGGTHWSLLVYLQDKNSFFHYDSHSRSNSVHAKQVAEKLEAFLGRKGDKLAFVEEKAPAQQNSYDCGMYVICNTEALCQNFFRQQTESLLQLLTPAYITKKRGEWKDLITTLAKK
UniProt P21912: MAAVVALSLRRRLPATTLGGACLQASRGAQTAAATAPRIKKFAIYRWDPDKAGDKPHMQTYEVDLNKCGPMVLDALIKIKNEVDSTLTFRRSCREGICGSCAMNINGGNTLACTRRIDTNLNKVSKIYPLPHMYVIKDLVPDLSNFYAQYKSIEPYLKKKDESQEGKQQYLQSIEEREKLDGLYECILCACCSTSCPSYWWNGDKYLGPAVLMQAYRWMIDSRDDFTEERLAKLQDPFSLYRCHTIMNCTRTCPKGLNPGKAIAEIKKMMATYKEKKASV
UniProt Q9UHR5: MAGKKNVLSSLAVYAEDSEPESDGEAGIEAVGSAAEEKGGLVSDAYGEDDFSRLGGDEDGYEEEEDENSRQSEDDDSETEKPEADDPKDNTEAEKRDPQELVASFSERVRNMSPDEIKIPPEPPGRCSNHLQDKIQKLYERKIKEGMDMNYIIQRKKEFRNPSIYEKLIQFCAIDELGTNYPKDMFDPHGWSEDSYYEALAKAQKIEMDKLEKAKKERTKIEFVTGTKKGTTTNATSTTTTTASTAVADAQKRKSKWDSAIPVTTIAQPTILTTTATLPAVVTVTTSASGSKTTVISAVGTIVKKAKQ

Some of the results follow.

Compound in the assay: CC1Cc2ccccc2N1C(=O)C1CCCN(C1)C(=O)CCl (mixture of isomers) [TRIM25 ligand 11 (diastereomer mixture)]
As to the kind of experiment: probe-labelled cysteine peptide fold change vs DMSO (competition) (log2 fold change); higher = less target engagement (more negative = stronger competition). Conditions: THP-1, incubation time: 4 h.
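Note: competitive chemoproteomic profiling in live THP-1 cells with an iodoacetamide desthiobiotin (IA-DTB) probe, comparing probe-labelled peptide intensities in compound-treated cells against DMSO-treated controls.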

For the target “SART3_Q15020_182_DYICPNIWLEYGQYSVGGIGQK (UniProt Q15020)”, the “probe-labelled cysteine peptide fold change” value runs as follows: (10 µM) 0.0675; (50 µM) 0.102.

Turning to “SATB1_Q01826_173_IQLHSCPK (UniProt Q01826)”, the “probe-labelled cysteine peptide fold change” value turned out to be 0.0227 (10 µM) and 0.0244 (50 µM).

With “SEC63_Q9UGP8_295_KNEPPLTCPYSLK (UniProt Q9UGP8)”, the “probe-labelled cysteine peptide fold change” value runs as follows: (10 µM) -0.0396; (50 µM) -0.173.

For “SCP2_P22307_495_KADCTITMADSDFLALMTGK (UniProt P22307)”, the “probe-labelled cysteine peptide fold change” value is, setting by setting: (10 µM) -0.0486; (50 µM) 0.0238.

“SEC23IP_Q9Y6Y8_467_SIIECVDDFR (UniProt Q9Y6Y8)”: the “probe-labelled cysteine peptide fold change” value worked out at 0.13 (10 µM) and 0.172 (50 µM).

“SDCBP_O00560_239_NGLLTEHNICEINGQNVIGLK (UniProt O00560)”: the “probe-labelled cysteine peptide fold change” value (10 µM) is 0.0202 and the “probe-labelled cysteine peptide fold change” value (50 µM) came out at 0.0577.

In the case of “SEC23B_Q15437_66_ERPDLPPVQYEPVLCSRPTCK (UniProt Q15437)”, the “probe-labelled cysteine peptide fold change” value was 0.0013 (10 µM) and -0.00603 (50 µM).

Take “SEC23A_Q15436_423_ISGAIGPCVSLNSK (UniProt Q15436)”: the “probe-labelled cysteine peptide fold change” value is 0.0735 (10 µM) and -0.0311 (50 µM).

As for “SCFD2_Q8WU76_79_AVFVLSCLLK (UniProt Q8WU76)”, the “probe-labelled cysteine peptide fold change” value stood at 0.0533 (10 µM) and 0.0933 (50 µM).

On to “SDSL_Q96GA7_296_LQAEGCLPPSLTSVVVIVCGGNNINSR (UniProt Q96GA7)”, for which the “probe-labelled cysteine peptide fold change” value reads like this: (10 µM) -0.173; (50 µM) -0.155.

Consider “SAP30_O75446_184_AQLVEIVGCHFR (UniProt O75446)”, for which the “probe-labelled cysteine peptide fold change” value was -0.0276 (10 µM) and -0.0231 (50 µM).

With “SCAI_Q8N9R8_415_EMHCLHPGDLYPFTR (UniProt Q8N9R8)”, the “probe-labelled cysteine peptide fold change” value runs as follows: (10 µM) -0.441; (50 µM) -0.132.

For the target “SEC23IP_Q9Y6Y8_604_CPGPLAVANGVVK (UniProt Q9Y6Y8)”, the “probe-labelled cysteine peptide fold change” value was -0.115 (10 µM) and -0.126 (50 µM).

For the target “SATB1_Q01826_91_GTMLPVFCVVEHYENAIEYDCKEEHAEFVLVRK (UniProt Q01826)”, the “probe-labelled cysteine peptide fold change” value reads like this: (10 µM) -0.0244; (50 µM) -0.241.

As for “SBNO1_A3KN83_605_YLCIASK (UniProt A3KN83)”, the “probe-labelled cysteine peptide fold change” value runs as follows: (10 µM) -0.147; (50 µM) 0.204.

In the case of “SEC24C_P53992_452_FQCCFCSCINDVPPQYFQHLDHTGKR (UniProt P53992)”, the “probe-labelled cysteine peptide fold change” value is -0.0532 (10 µM) and 0.0237 (50 µM).

For “SDCCAG8_Q86SQ7_236_CEIEESQLK (UniProt Q86SQ7)”, the “probe-labelled cysteine peptide fold change” value was -0.00217 (10 µM) and 0.0169 (50 µM).

On to “SBDS_Q9Y3A5_119_CVNPETK (UniProt Q9Y3A5)”, for which the “probe-labelled cysteine peptide fold change” value is, setting by setting: (10 µM) 0.0835; (50 µM) 0.193.

Turning to “SBNO2_Q9Y2G9_908_ALHCVLTTILSQTENK (UniProt Q9Y2G9)”, the “probe-labelled cysteine peptide fold change” value was 0.0964 (10 µM) and 0.236 (50 µM).

Consider “SENP8_Q96LD8_64_CTSNPAEIAMFLEPLDLPNKR (UniProt Q96LD8)”, for which the “probe-labelled cysteine peptide fold change” value by setting is: (10 µM) -0.146; (50 µM) -0.105.

As to “SEMA4D_Q92854_512_HGTCEDCVLAR (UniProt Q92854)”, the “probe-labelled cysteine peptide fold change” value was found to be 0.254 (10 µM) and 0.105 (50 µM).

“SEC23B_Q15437_346_TAANGHCIDIYACALDQTGLLEMK (UniProt Q15437)”: the “probe-labelled cysteine peptide fold change” value (10 µM) was -0.04 and the “probe-labelled cysteine peptide fold change” value (50 µM) was 0.0198.

“SART3_Q15020_670_CAAVDVEPPSK (UniProt Q15020)”: the “probe-labelled cysteine peptide fold change” value is 0.0246 (10 µM) and -0.148 (50 µM).

“SCRIB_Q14160_1082_DATHQEAVSALLRPCLELSLLVR (UniProt Q14160)”: the “probe-labelled cysteine peptide fold change” value reads like this: (10 µM) 0.24; (50 µM) -0.0877.

Turning to “SEC24C_P53992_635_AAECAGK (UniProt P53992)”, the “probe-labelled cysteine peptide fold change” value by setting is: (10 µM) -0.00731; (50 µM) 0.0421.

As for “SEC23B_Q15437_85_LWACNFCFQR (UniProt Q15437)”, the “probe-labelled cysteine peptide fold change” value by setting is: (10 µM) 0.00976; (50 µM) -0.0607.

Take “SATB1_Q01826_91_GTMLPVFCVVEHYENAIEYDCK (UniProt Q01826)”: the “probe-labelled cysteine peptide fold change” value is, setting by setting: (10 µM) 0.391; (50 µM) 0.219.

On to SDF2_Q99470_80_SATVCER (UniProt Q99470), for which the “probe-labelled cysteine peptide fold change” value (10 µM) is -0.0318 and the “probe-labelled cysteine peptide fold change” value (50 µM) turned out to be 0.0662.

As to “SDHB_P21912_243+249_CHTIMNCTR (UniProt P21912)”, the “probe-labelled cysteine peptide fold change” value (10 µM) was -0.0459 and the “probe-labelled cysteine peptide fold change” value (50 µM) was -0.14.

Take “SEC24D_O94855_819_EILVNQTAHMLACYR (UniProt O94855)”: the “probe-labelled cysteine peptide fold change” value by setting is: (10 µM) -0.000863; (50 µM) 0.141.

Take “SART1_O43290_560_GAIVFNATSEFCR (UniProt O43290)”: the “probe-labelled cysteine peptide fold change” value runs as follows: (10 µM) -0.0108; (50 µM) 0.0741.

Turning to “SDAD1_Q9NVU7_87_DLLSCNHTVLDPDLR (UniProt Q9NVU7)”, the “probe-labelled cysteine peptide fold change” value is, setting by setting: (10 µM) 0.239; (50 µM) 0.348.

As for “SEC13_P55735_299_ESVDGQWVCISDVNK (UniProt P55735)”, the “probe-labelled cysteine peptide fold change” value is, setting by setting: (10 µM) 0.18; (50 µM) 0.201.

With “SAMM50_Q9Y512_237_ELGCLSR (UniProt Q9Y512)”, the “probe-labelled cysteine peptide fold change” value runs as follows: (10 µM) -0.0209; (50 µM) 0.0477.

“SBDS_Q9Y3A5_216_VIESEDYGQQLEIVCLIDPGCFR (UniProt Q9Y3A5)”: the “probe-labelled cysteine peptide fold change” value was -0.0248 (10 µM) and -0.0419 (50 µM).

As to “SART3_Q15020_114_LEEQLSINVYDYNCHVDLIR (UniProt Q15020)”, the “probe-labelled cysteine peptide fold change” value was 0.108 (10 µM) and 0.087 (50 µM).

Turning to “SAP30BP_Q9UHR5_127_CSNHLQDK (UniProt Q9UHR5)”, the “probe-labelled cysteine peptide fold change” value is, setting by setting: (10 µM) -0.0333; (50 µM) -0.337.

As to “SEC23IP_Q9Y6Y8_678_EKIDMESLLMCTVDDLK (UniProt Q9Y6Y8)”, the “probe-labelled cysteine peptide fold change” value was 0.113 (10 µM) and 0.00273 (50 µM).

Consider “SATB2_Q9UPW6_539_TLWENLCTIR (UniProt Q9UPW6)”, for which the “probe-labelled cysteine peptide fold change” value is 0.0117 (10 µM) and 0.0195 (50 µM).

As for “SDHA_P31040_266_TYFSCTSAHTSTGDGTAMITR (UniProt P31040)”, the “probe-labelled cysteine peptide fold change” value is, setting by setting: (10 µM) 0.356; (50 µM) 0.0782.

With “SEH1L_Q96EE3_30_MATCSSDQSVK (UniProt Q96EE3)”, the “probe-labelled cysteine peptide fold change” value reads like this: (10 µM) 0.0276; (50 µM) 0.0137.
